Over roughly 33,000 sequences, “E-score (-0.5 to 0.5)” has its median near -0.0034; the highest 2% begin near 0.25. This is one part of the list.
Biological target: T1, Yap3 (UniProt P38749)
T1 sequence: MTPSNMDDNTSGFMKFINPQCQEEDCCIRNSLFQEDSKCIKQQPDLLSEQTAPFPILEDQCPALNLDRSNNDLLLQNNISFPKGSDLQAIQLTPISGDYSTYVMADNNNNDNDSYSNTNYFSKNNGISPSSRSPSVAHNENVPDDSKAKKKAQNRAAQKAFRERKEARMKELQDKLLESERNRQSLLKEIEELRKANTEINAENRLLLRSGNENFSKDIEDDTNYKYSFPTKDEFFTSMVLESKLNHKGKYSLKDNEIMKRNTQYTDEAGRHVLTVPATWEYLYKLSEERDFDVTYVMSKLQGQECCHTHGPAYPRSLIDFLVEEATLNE
Assay: PBM E-score (8-mer binding enrichment) (E-score (-0.5 to 0.5)); higher = stronger / more preferred TF binding
Details: protein concentration: 100 nM; construct: GST-full length
Summary of the method: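 E-scores (a modified Wilcoxon-Mann-Whitney statistic) were assigned by the Universal PBM Analysis Suite to every ungapped eight-base word pooled with its reverse complement. The input came from universal all-10-mer Agilent arrays made double-stranded by primer extension and probed with GST-tagged yeast transcription factors at about 100-200 nM. Fluorescent anti-GST detected bound protein, and masliner normalised the scans.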

Q: GATCTCGA was tested. Which “PBM E-score” value did it give?
A: 0.00476

Q: ACTGGCAG was tested. Which “PBM E-score” value did it give?
A: -0.135

Q: AGATACAG was tested. Which “PBM E-score” value did it give?
A: 0.159

Q: Which “PBM E-score” value does the source give for GCATGTGA here?
A: 0.0561

Q: For CGACAGCA, which “PBM E-score” value is on record?
A: -0.0646

Q: With ATGGGTCG as the sequence, how does the “PBM E-score” value read?
A: -0.152

Q: GACATGCA was tested. Which “PBM E-score” value did it give?
A: 0.00239

Q: For GTCGCATA, which “PBM E-score” value is on record?
A: 0.0927

Q: For CACATAAC, which “PBM E-score” value is on record?
A: -0.0392

Q: AGTTGAAG was tested. Which “PBM E-score” value did it give?
A: 0.0421

Q: How did the “PBM E-score” value turn out when CCGCAGCC was run?
A: -0.174

Q: AAGCAACC was tested. Which “PBM E-score” value did it give?
A: 0.0923

Q: ACACCCTA was tested. Which “PBM E-score” value did it give?
A: -0.0214

Q: How did the “PBM E-score” value turn out when AACTGACG was run?
A: -0.0145

Q: With CCGTTCGC as the sequence, how does the “PBM E-score” value read?
A: 0.00583

Q: For ATCCGACG, which “PBM E-score” value is on record?
A: -0.0364

Q: How did the “PBM E-score” value turn out when AGAGCGCT was run?
A: -0.0304

Q: GGTTACTA was tested. Which “PBM E-score” value did it give?
A: 0.0437

Q: AACACATC was tested. Which “PBM E-score” value did it give?
A: 0.00349

Q: How did the “PBM E-score” value turn out when CACGCGAC was run?
A: 0.0191

Q: With AGGAACCG as the sequence, how does the “PBM E-score” value read?
A: -0.0478

Q: For CGCGCATA, which “PBM E-score” value is on record?
A: 0.0347

Q: Which “PBM E-score” value does the source give for AGGACGAT here?
A: 0.0178

Q: Which “PBM E-score” value does the source give for GGACGGTA here?
A: -0.0107

Q: For ACATAAGG, which “PBM E-score” value is on record?
A: 0.17

Q: With CCTCTGGA as the sequence, how does the “PBM E-score” value read?
A: -0.136

Q: GCCTGTCA was tested. Which “PBM E-score” value did it give?
A: -0.0613

Q: With ATCGGAAT as the sequence, how does the “PBM E-score” value read?
A: 0.15

Q: How did the “PBM E-score” value turn out when CCGCACGC was run?
A: -0.149

Q: With ACCTTACA as the sequence, how does the “PBM E-score” value read?
A: 0.0448

Q: Which “PBM E-score” value does the source give for GGAGATAA here?
A: 0.107

Q: With ATAGTGCC as the sequence, how does the “PBM E-score” value read?
A: -0.0304

Q: Which “PBM E-score” value does the source give for CCCTTGTC here?
A: -0.0711

Q: AAGCAATG was tested. Which “PBM E-score” value did it give?
A: 0.142

Q: For GCGACGAA, which “PBM E-score” value is on record?
A: -0.00754

Q: For ACGTAAAA, which “PBM E-score” value is on record?
A: 0.198

Q: How did the “PBM E-score” value turn out when CCTTTAAA was run?
A: -0.0208

Q: With AAGAGATT as the sequence, how does the “PBM E-score” value read?
A: 0.0728

Q: For TAAGGCTA, which “PBM E-score” value is on record?
A: -0.0438

Q: CTCCGCGA was tested. Which “PBM E-score” value did it give?
A: -0.128

Q: Which “PBM E-score” value does the source give for AGTCTCCA here?
A: -0.128

Q: With CGCTCGCC as the sequence, how does the “PBM E-score” value read?
A: -0.0305

Q: How did the “PBM E-score” value turn out when CCGAATCC was run?
A: 0.0723

Q: How did the “PBM E-score” value turn out when CCGATGAG was run?
A: 0.053

Q: With CCATTGCC as the sequence, how does the “PBM E-score” value read?
A: -0.00355

Q: How did the “PBM E-score” value turn out when CTGTATTC was run?
A: 0.128

Q: For GCTCAAGA, which “PBM E-score” value is on record?
A: -0.261

Q: GGTGTGTA was tested. Which “PBM E-score” value did it give?
A: 0.0354

Q: Which “PBM E-score” value does the source give for TTGGCAAA here?
A: 0.14

Q: ACCATGAT was tested. Which “PBM E-score” value did it give?
A: -0.0481

Q: For CTAGTCAA, which “PBM E-score” value is on record?
A: -0.0259

Q: With GGGTAGAC as the sequence, how does the “PBM E-score” value read?
A: -0.216

Q: With CGGCCAAG as the sequence, how does the “PBM E-score” value read?
A: -0.136

Q: How did the “PBM E-score” value turn out when ATCTCACC was run?
A: 0.0914

Q: For ACCTTGAC, which “PBM E-score” value is on record?
A: -0.0329

Q: How did the “PBM E-score” value turn out when ACATCCTC was run?
A: -0.0125

Q: With CTCTTGCA as the sequence, how does the “PBM E-score” value read?
A: -0.214

Q: With TAATGGCA as the sequence, how does the “PBM E-score” value read?
A: 0.105

Q: For ACGAACTC, which “PBM E-score” value is on record?
A: 0.0654

Q: ATATGTCG was tested. Which “PBM E-score” value did it give?
A: 0.0372

Q: ATTTAAAC was tested. Which “PBM E-score” value did it give?
A: 0.242

Q: Which “PBM E-score” value does the source give for AGTCACTG here?
A: -0.057

Q: CTCCTTAA was tested. Which “PBM E-score” value did it give?
A: -0.15

Q: GGCTGGAC was tested. Which “PBM E-score” value did it give?
A: -0.295

Q: TAACCTTA was tested. Which “PBM E-score” value did it give?
A: -0.0831

Q: CGTGTTCA was tested. Which “PBM E-score” value did it give?
A: 0.103

Q: GGTGGTGA was tested. Which “PBM E-score” value did it give?
A: -0.11

Q: With AATATACA as the sequence, how does the “PBM E-score” value read?
A: 0.241

Q: ACGCTAAT was tested. Which “PBM E-score” value did it give?
A: 0.015

Q: ATCTCAAT was tested. Which “PBM E-score” value did it give?
A: 0.0281

Q: How did the “PBM E-score” value turn out when ACAGTGCT was run?
A: 0.0811

Q: Which “PBM E-score” value does the source give for CAGGACGG here?
A: -0.141

Q: Which “PBM E-score” value does the source give for AGGATAGA here?
A: -0.00474

Q: For AGATCCCC, which “PBM E-score” value is on record?
A: -0.147

Q: Which “PBM E-score” value does the source give for CCTAATCA here?
A: 0.0984

Q: For CTTATATC, which “PBM E-score” value is on record?
A: 0.218

Q: With CTCTTAAA as the sequence, how does the “PBM E-score” value read?
A: 0.198

Q: How did the “PBM E-score” value turn out when AGTCTCGG was run?
A: -0.158

Q: Which “PBM E-score” value does the source give for ATGGCATA here?
A: 0.0884

Q: AGCCCATG was tested. Which “PBM E-score” value did it give?
A: -0.113

Q: ATGTCCCC was tested. Which “PBM E-score” value did it give?
A: 0.0276

Q: How did the “PBM E-score” value turn out when CACTCACC was run?
A: -0.0833

Q: AAGGCTCT was tested. Which “PBM E-score” value did it give?
A: -0.198

Q: AGTCCCCC was tested. Which “PBM E-score” value did it give?
A: -0.439

Q: How did the “PBM E-score” value turn out when AGAAGAAT was run?
A: -0.0458

Q: For CCTTTGGA, which “PBM E-score” value is on record?
A: -0.218

Q: Which “PBM E-score” value does the source give for ATTACTTC here?
A: 0.0658

Q: How did the “PBM E-score” value turn out when CGTTCCTA was run?
A: -0.0944

Q: How did the “PBM E-score” value turn out when AAATGAAT was run?
A: 0.0825

Q: AGATAATA was tested. Which “PBM E-score” value did it give?
A: 0.231

Q: AAAGCGCC was tested. Which “PBM E-score” value did it give?
A: -0.00492

Q: GAGGTGCA was tested. Which “PBM E-score” value did it give?
A: 0.0881

Q: For AAACGTGG, which “PBM E-score” value is on record?
A: -0.0654

Q: How did the “PBM E-score” value turn out when AGAGAAAT was run?
A: 0.142

Q: For CTATCCAC, which “PBM E-score” value is on record?
A: 0.0412

Q: Which “PBM E-score” value does the source give for ACACACGA here?
A: 0.152

Q: How did the “PBM E-score” value turn out when AGCCCTAA was run?
A: -0.114

Q: With CGACTATA as the sequence, how does the “PBM E-score” value read?
A: 0.0848

Q: How did the “PBM E-score” value turn out when CGCCACTC was run?
A: 0.113

Q: CAGATCAG was tested. Which “PBM E-score” value did it give?
A: 0.185

Q: With ATACTGCA as the sequence, how does the “PBM E-score” value read?
A: 0.107

Q: How did the “PBM E-score” value turn out when ACTGGATC was run?
A: 0.00422

Q: CAAACGGG was tested. Which “PBM E-score” value did it give?
A: -0.00468

Q: Which “PBM E-score” value does the source give for AGGGGTGA here?
A: -0.245

Q: ACTTTGGC was tested. Which “PBM E-score” value did it give?
A: -0.0911

Q: With ACTATCGA as the sequence, how does the “PBM E-score” value read?
A: 0.0401

Q: Which “PBM E-score” value does the source give for ATAAAACG here?
A: 0.206

Q: With GCGTAAAC as the sequence, how does the “PBM E-score” value read?
A: 0.191

Q: For GAACCGTA, which “PBM E-score” value is on record?
A: -0.121

Q: CCGCAGCG was tested. Which “PBM E-score” value did it give?
A: -0.158

— the supplement of paper PMC3334620
